Reference: the supplement of paper PMC10849652
The list shows a part of the results. Residues, ends and D or L forms follow the SMILES beside them. *: point of attachment. Cbz = O=C(OCc1ccccc1)*

By UniProt entry, the sequences of proteins in these tests, tags left out. Where a name states a change or a piece, a line headed by the entry shows the natural chain unless it says otherwise.
UniProt P04275, whole entry, looked up: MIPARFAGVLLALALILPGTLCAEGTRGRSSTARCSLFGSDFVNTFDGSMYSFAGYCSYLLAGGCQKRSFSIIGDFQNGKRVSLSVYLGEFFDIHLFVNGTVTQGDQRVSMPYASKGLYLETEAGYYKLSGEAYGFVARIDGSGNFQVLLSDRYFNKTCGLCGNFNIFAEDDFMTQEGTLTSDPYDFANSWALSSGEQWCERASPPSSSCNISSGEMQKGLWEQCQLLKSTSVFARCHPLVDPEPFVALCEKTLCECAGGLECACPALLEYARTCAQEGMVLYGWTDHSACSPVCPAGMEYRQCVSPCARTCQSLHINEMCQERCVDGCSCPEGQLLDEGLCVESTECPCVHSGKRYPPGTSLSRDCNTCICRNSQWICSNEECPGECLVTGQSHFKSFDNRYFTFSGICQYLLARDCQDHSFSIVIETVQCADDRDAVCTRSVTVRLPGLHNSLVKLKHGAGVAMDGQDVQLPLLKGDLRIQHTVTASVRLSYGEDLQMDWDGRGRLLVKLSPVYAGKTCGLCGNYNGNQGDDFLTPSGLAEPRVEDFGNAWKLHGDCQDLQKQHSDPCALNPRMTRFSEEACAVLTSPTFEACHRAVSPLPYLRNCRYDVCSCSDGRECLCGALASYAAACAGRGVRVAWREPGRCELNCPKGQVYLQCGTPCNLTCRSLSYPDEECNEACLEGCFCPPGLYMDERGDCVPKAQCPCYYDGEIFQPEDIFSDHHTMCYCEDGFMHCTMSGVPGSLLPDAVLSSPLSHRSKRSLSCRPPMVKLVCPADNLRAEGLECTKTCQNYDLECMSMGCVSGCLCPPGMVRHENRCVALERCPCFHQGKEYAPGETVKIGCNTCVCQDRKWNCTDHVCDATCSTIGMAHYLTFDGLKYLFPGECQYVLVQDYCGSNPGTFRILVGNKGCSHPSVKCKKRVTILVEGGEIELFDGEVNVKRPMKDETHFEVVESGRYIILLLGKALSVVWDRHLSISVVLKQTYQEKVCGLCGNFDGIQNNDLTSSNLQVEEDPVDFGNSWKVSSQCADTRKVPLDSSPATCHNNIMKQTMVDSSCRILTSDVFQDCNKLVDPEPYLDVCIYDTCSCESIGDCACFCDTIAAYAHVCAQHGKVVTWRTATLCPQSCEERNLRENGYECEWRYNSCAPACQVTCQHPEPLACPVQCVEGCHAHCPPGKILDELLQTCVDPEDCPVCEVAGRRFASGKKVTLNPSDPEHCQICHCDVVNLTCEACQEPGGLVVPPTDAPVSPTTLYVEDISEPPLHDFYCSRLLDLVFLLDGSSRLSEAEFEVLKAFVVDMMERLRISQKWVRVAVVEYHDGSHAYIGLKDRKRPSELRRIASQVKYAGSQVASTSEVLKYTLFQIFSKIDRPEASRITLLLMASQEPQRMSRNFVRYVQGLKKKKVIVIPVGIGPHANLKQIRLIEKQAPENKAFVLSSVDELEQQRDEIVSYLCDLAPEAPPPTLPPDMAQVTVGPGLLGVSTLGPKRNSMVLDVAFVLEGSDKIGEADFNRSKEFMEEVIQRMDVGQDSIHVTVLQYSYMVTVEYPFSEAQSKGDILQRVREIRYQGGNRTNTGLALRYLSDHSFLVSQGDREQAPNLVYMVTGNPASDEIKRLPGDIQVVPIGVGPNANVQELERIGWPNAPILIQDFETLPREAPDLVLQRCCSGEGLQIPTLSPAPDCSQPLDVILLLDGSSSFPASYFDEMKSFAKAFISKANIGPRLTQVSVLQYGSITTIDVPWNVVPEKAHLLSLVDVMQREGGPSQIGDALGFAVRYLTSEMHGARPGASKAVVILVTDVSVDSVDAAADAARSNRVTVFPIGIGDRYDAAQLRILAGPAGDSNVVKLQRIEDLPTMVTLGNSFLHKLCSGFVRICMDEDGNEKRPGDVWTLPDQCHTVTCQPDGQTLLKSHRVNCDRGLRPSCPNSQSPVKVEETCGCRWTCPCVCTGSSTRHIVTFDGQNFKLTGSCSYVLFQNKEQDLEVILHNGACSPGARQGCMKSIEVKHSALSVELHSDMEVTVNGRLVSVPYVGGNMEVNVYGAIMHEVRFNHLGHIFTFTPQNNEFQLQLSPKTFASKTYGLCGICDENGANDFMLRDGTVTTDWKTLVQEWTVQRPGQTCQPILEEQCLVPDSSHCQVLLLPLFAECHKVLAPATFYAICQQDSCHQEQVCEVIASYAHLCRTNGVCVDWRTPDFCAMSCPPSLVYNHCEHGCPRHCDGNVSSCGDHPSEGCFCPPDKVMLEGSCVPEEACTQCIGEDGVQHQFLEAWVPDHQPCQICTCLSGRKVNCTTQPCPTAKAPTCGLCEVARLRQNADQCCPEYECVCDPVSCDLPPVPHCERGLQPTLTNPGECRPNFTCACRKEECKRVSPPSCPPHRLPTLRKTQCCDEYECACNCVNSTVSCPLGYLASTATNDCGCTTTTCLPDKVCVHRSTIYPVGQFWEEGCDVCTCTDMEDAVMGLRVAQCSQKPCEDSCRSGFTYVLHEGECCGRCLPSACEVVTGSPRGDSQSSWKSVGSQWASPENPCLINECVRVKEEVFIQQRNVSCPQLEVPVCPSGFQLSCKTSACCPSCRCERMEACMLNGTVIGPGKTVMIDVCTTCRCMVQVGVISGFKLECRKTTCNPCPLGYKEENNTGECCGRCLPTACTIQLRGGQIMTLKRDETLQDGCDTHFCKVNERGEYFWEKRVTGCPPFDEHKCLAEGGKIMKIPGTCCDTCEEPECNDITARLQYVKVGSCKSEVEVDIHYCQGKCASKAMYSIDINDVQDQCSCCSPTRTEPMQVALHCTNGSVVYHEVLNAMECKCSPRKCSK
UniProt Q9Y4P8: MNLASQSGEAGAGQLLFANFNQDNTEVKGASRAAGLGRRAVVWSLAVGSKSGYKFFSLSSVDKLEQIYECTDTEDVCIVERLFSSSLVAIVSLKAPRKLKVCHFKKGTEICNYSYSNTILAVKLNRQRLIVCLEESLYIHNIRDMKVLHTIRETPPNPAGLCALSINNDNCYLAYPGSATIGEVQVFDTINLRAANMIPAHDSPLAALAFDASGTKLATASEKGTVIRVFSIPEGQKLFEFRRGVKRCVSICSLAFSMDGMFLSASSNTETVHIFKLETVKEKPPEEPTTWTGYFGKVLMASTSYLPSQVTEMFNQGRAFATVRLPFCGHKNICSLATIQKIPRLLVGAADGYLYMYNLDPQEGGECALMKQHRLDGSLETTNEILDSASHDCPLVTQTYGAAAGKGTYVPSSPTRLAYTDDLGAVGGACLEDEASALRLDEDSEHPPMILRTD
UniProt P40337, whole entry, looked up: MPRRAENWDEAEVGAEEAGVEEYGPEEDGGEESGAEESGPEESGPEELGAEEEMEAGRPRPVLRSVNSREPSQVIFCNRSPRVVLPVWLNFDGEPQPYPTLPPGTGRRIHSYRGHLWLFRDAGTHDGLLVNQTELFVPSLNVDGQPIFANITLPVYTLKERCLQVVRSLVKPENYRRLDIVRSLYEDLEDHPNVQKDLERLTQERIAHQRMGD
UniProt P57081: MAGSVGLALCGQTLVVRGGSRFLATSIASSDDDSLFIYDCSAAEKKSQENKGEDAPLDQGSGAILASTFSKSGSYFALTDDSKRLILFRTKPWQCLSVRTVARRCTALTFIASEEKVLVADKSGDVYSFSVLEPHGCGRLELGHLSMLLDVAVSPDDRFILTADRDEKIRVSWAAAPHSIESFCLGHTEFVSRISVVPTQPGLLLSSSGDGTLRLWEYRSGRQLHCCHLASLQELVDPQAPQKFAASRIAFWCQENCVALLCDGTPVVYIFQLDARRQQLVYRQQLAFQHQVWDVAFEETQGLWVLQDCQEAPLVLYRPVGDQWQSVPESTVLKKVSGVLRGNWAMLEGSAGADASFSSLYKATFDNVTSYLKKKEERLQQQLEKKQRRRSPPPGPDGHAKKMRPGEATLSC
UniProt Q69YN4: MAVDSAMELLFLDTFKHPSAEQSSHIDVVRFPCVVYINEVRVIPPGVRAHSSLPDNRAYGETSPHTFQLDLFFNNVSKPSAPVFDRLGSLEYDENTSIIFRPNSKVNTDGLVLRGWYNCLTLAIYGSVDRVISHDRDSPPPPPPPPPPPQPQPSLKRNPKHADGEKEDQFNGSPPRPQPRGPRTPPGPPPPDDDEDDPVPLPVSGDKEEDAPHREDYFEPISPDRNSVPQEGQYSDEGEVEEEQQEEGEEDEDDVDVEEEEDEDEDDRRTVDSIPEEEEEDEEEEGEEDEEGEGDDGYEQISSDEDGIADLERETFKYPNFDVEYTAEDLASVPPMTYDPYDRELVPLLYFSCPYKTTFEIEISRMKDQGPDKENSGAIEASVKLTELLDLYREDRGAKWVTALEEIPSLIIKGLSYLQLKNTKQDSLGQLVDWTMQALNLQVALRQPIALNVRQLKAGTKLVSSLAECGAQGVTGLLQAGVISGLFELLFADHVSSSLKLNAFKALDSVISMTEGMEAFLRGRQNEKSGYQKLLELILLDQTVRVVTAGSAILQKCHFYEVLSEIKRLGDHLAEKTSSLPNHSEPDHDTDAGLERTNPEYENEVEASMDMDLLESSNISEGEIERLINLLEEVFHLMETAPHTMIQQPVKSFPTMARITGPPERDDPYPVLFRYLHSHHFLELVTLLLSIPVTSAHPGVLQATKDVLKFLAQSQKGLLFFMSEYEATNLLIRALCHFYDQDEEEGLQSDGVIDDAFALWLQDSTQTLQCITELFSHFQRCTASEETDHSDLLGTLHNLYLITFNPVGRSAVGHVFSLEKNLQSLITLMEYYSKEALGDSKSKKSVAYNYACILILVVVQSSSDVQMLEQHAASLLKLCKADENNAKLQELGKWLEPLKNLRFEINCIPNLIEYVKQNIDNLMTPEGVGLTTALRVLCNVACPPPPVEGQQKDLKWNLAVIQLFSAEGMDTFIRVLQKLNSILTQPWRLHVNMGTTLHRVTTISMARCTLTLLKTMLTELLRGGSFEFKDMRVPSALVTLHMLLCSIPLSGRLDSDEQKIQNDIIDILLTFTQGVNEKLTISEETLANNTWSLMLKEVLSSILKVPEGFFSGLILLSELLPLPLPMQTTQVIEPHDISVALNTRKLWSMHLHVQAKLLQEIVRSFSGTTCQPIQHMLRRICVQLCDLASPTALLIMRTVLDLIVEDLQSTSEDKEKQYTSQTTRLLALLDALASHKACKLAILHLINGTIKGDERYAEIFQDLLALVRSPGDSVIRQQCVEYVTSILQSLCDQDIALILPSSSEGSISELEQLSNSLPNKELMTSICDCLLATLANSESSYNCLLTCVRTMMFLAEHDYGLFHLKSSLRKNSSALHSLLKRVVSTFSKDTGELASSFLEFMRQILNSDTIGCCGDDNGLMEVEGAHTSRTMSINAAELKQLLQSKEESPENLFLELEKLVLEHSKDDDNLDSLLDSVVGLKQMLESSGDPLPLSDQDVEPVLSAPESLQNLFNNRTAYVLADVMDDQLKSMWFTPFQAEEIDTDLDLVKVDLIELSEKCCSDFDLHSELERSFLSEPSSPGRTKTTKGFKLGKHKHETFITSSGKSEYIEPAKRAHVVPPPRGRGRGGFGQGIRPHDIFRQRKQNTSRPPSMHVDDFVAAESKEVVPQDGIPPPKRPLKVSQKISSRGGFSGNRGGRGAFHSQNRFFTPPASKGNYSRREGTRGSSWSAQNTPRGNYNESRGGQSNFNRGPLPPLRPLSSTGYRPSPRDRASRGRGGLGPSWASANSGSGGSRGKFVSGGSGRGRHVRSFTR
UniProt O00308: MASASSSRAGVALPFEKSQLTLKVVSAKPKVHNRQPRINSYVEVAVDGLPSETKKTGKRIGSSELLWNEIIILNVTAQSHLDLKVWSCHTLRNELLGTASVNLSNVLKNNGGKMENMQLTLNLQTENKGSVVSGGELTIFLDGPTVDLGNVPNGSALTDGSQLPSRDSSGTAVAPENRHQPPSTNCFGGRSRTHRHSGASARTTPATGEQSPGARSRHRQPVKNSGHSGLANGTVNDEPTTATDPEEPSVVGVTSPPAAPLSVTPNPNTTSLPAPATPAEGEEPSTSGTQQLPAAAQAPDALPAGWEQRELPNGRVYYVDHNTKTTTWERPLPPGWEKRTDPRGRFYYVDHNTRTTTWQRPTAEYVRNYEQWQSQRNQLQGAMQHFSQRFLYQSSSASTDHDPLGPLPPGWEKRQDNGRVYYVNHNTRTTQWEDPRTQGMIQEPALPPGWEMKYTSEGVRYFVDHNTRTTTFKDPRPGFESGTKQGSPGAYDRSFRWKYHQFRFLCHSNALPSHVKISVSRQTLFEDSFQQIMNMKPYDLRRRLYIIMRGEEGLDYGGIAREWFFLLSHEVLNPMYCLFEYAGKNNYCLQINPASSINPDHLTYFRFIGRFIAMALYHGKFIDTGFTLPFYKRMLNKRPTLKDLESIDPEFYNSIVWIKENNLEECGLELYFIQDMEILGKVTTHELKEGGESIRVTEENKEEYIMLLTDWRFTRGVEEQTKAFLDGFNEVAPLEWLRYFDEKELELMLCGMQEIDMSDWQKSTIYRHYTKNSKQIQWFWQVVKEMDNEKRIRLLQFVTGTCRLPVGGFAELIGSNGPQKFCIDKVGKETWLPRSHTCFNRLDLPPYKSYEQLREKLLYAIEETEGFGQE

Legend:
Test in all cases: log2 fold change, soluble protein after heating vs DMSO (PISA); higher = thermal stabilisation; K562 cells, 10 uM, 30 min; active = over 0.2 and 3.5 SD of the protein, either way, in both replicates (recomputed)
[1] = compound: C1=CC(=C(C=C1Cl)C2=NC3=NC=CN=C3C(=N2)NC4=CC=NC=C4)F
In short: (§1)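 Thermal stability values are relative to control samples and come from duplicates. They are expressed as log2 fold changes. For measurement, K562 cells (2×10^6 cells/mL) received 10 μM compound for 30 min, and aliquots were heated for 3 min over 48°C-58°C, pooled, and extracted at 4°C in PBS with 0.5% NP-40. Soluble protein, the supernatant after 21,000xg for 90 min, was quantified by TMTpro 16plex LC-MS/MS with equalised channel sums.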

[2] = compound: C1=CC=C(C=C1)C2=NC(=C(N2)C3=CC=NC=C3)C4=CC(=C(C=C4)Cl)O
In short: as §1

IRAK-1-4 Inhibitor I = compound: C1COCCN1CCN2C3=CC=CC=C3N=C2NC(=O)C4=CC(=CC=C4)[N+](=O)[O-] [IRAK-1-4 Inhibitor I]
In short: as §1

ralimetinib = compound: CC(C)(C)Cn1c(N)nc2ccc(-c3[nH]c(C(C)(C)C)nc3-c3ccc(F)cc3)nc21 [ralimetinib]
In short: as §1

[3] = compound: CC(C)(O)CC(=O)NCCn1ccc2ncnc(Nc3ccc(Oc4cccc(C(F)(F)F)c4)c(Cl)c3)c21
In short: as §1

[4] = compound: CC(C)C[C@@H](C=O)NC(=O)[C@H](CC(C)C)NC(=O)[C@H](CC(C)C)NC(=O)OCc1ccccc1
In short: as §1

pinometostat = compound: CC(C)N(C[C@H]1O[C@@H](n2cnc3c(N)ncnc32)[C@H](O)[C@@H]1O)[C@H]1C[C@@H](CCc2nc3cc(C(C)(C)C)ccc3[nH]2)C1 [pinometostat]
In short: as §1

[5] = compound: C/C(=N\NC(=O)C1=CC(=CC=C1)S(=O)(=O)N2CCOCC2)/C3=C(C=CC(=C3)Cl)O
In short: as §1

[6] = compound: C1=CC2=C(C=CC(=C2)/C=C\3/C(=O)NC(=NCC4=CC=CS4)S3)N=C1
In short: as §1

[7] = compound: C1=CC=C2C(=C1)C3=NNC4=CC=CC(=C43)C2=O
In short: as §1

[8] = compound: CC(=O)c1cnc2ccc(-c3cc(Cl)c(O)c(Cl)c3)nc2c1N[C@H]1CC[C@H](CN(C)C)CC1
In short: as §1

[9] = compound: C1=CC2=NC=CN=C2C=C1/C=C/3\C(=O)NC(=O)S3
In short: as §1

[10] = compound: C1CCN(C1)C(=O)NC2=CC=CC(=C2)NC3=NC=C(C(=N3)NCCC4=CN=CN4)Br
In short: as §1

[11] = compound: C1CN(CCC1(CC2=CC=C(C=C2)Cl)N)C3=NC=NC4=C3C=CN4
In short: as §1

ibrutinib = compound: C=CC(=O)N1CCC[C@@H](n2nc(-c3ccc(Oc4ccccc4)cc3)c3c(N)ncnc32)C1 [ibrutinib]
In short: as §1

[12] = compound: CC1=C(C2=C(C=C1)C(=O)C3=CC=CC=C3N2CCCN)C
In short: as §1

[13] = compound: CC1=C(C(CC(=O)N1)C2=CC=C(C=C2)C(F)(F)F)C(=O)NC3=C(C=C4C(=C3)C=NN4)F
In short: as §1

erlotinib = compound: C#Cc1cccc(Nc2ncnc3cc(OCCOC)c(OCCOC)cc23)c1 [erlotinib]
In short: as §1

[14] = compound: C1=CC(=CC=C1C2=NC3=C(N2)C=C(C=C3)C(=O)N)OC4=CC=C(C=C4)Cl
In short: as §1

[15] = compound: CC(C)C1=C2N=C(C=C(N2N=C1)NCC3=CC=CC=C3)NCCCCCCN
In short: as §1

Measured: log2 fold change

XAB2 (UniProt Q9HCS7)
inactive: [1] -0.223 | [2] 0.075 | IRAK-1-4 Inhibitor I -0.036 | ralimetinib 0.14 | [3] -0.138 | [4] -0.041 | pinometostat 0.181

VWF (UniProt P04275)
inactive: [5] -0.041 | [6] 0.033 | [7] 0.074 | IRAK-1-4 Inhibitor I 0.022 | [8] 0.003 | pinometostat -0.066

WDR75 (UniProt Q8IWA0)
inactive: [5] -0.256 | [1] -0.592 | [6] 0.306 | [9] 0.091 | [2] -0.063 | [7] 0.042 | [10] -0.193 | [11] 0.021 | IRAK-1-4 Inhibitor I -0.081 | ibrutinib -0.026 | [8] -0.196 | ralimetinib 0.189 | [3] 0.012 | [4] 0.178 | pinometostat 0.197 | [12] 0.402

WDR54 isoform 4 (UniProt Q9H977)
inactive: [13] 0.102

WDR13, A0A087X091
inactive: IRAK-1-4 Inhibitor I 0.213 | pinometostat 0.003 | [13] 0.105

WARS1 (UniProt G3V339)
inactive: [1] -0.023 | [3] 0.044

WARS1 (UniProt G3V227)
inactive: [5] -0.08 | [1] 0.018 | [6] -0.159 | [9] 0.093 | [7] -0.178 | [10] 0.098 | [11] -0.089 | ibrutinib 0.03 | [8] -0.022 | [3] 0.259 | [12] -0.048

WIPI2 isoform 6 (UniProt Q9Y4P8)
inactive: [5] -0.003 | [6] 0.09 | [9] 0.003 | [7] -0.108 | ibrutinib -0.073 | [8] 0.045

VIL1 (UniProt P09327)
inactive: [1] -0.072 | [9] -0.057 | ibrutinib 0.062 | [3] 0.018

VSIR (UniProt Q9H7M9)
inactive: erlotinib -0.002 | [1] -0.027 | [14] -0.045 | [9] 0.127 | [2] -0.061 | IRAK-1-4 Inhibitor I 0.119 | ibrutinib 0.007 | ralimetinib -0.146 | [3] 0.03 | [15] 0.04 | [4] 0.024 | pinometostat 0.051 | [13] -0.006

WDR81 (UniProt Q562E7)
inactive: [5] -0.058 | [1] -0.431 | [6] -0.094 | [9] 0.045 | [2] 0.074 | [7] -0.189 | [10] 0.231 | [11] -0.098 | IRAK-1-4 Inhibitor I 0.036 | ibrutinib -0.068 | [8] 0.059 | ralimetinib 0.052 | [3] -0.01 | [4] 0.162 | pinometostat -0.013 | [13] 0.039 | [12] -0.165

VGF (UniProt O15240)
inactive: erlotinib -0.011 | [14] 0.116 | [9] -0.019 | ibrutinib 0.096 | [15] -0.024

WNK4 (UniProt Q96J92)
inactive: [5] -0.032 | [1] -0.036 | [6] 0.011 | [7] -0.049 | [10] -0.023 | [11] -0.034 | [8] -0.343 | [3] 0.154 | [12] 0.028

VDAC2 (UniProt Q5JSD2)
inactive: [1] 0.035 | [9] 0.092 | [3] -0.027 | [13] 0.173

WDR91 (UniProt A4D1P6)
inactive: [5] 0.15 | [1] -0.071 | [6] 0.018 | [9] 0.081 | [2] 0.2 | [7] -0.058 | [10] 0.118 | [11] -0.365 | IRAK-1-4 Inhibitor I -0.047 | ibrutinib 0.171 | [8] -0.07 | ralimetinib 0.192 | [3] 0.095 | [4] -0.088 | pinometostat 0 | [12] 0.13

WDR46, A0A0G2JJL1
inactive: erlotinib -0.273 | [1] -0.741 | [14] -0.011 | [9] 0.027 | [10] 0.279 | [11] 0.114 | IRAK-1-4 Inhibitor I -0.153 | ibrutinib 0.054 | [3] 0.269 | [15] 0.003 | pinometostat 0.325 | [12] -0.353

WDR76 (UniProt Q9H967)
inactive: [5] -0.03 | [1] -0.418 | [6] -0.152 | [7] 0.034 | [8] -0.112 | [3] 0.11

WAC (UniProt Q9BTA9)
inactive: IRAK-1-4 Inhibitor I -0.035 | pinometostat -0.117

VHL (UniProt P40337)
inactive: [5] 0.118 | [6] -0.039 | [2] -0.002 | [7] 0.006 | [8] -0.012 | ralimetinib 0.109 | [4] 0.132

WWOX (UniProt Q9NZC7)
inactive: erlotinib 0.167 | [14] -0.14 | [10] -0.389 | [11] 0.077 | [15] 0.064 | [12] 0.024

WDR4 isoform 3 (UniProt P57081)
inactive: [1] -0.144 | [9] 0.045 | ibrutinib -0.157 | [3] -0.126

WDR83 (UniProt Q9BRX9)
inactive: erlotinib -0.323 | [14] 0.049 | [15] 0.239

VDAC2 (UniProt Q5JSD1)
inactive: [1] 0.059 | [9] 0.155 | [2] -0.139 | ralimetinib -0.149 | [3] 0.309 | [4] 0.24 | [13] 0.213

VIRMA (UniProt Q69YN4)
inactive: erlotinib 0.031 | [1] -0.099 | [14] -0.005 | [9] 0.181 | [2] -0.015 | IRAK-1-4 Inhibitor I -0.105 | ibrutinib -0.07 | ralimetinib -0.033 | [3] -0.061 | [15] -0.052 | [4] 0.123 | pinometostat 0.042 | [13] 0.176

VPS13A isoform 4 (UniProt Q96RL7)
inactive: erlotinib 0.073 | [14] 0.03 | [2] 0.013 | [10] -0.099 | [11] 0.075 | ralimetinib 0.043 | [15] 0.054 | [4] -0.323 | [12] 0.062

WWP2 (UniProt O00308)
inactive: [1] -0.238 | IRAK-1-4 Inhibitor I -0.181 | [3] -0.16 | pinometostat 0.207

Two neighbouring records from above, quoted:
VDAC2 (UniProt Q5JSD1)
inactive: [1] 0.059 | [9] 0.155 | [2] -0.139 | ralimetinib -0.149 | [3] 0.309 | [4] 0.24 | [13] 0.213

VIRMA (UniProt Q69YN4)
inactive: erlotinib 0.031 | [1] -0.099 | [14] -0.005 | [9] 0.181 | [2] -0.015 | IRAK-1-4 Inhibitor I -0.105 | ibrutinib -0.07 | ralimetinib -0.033 | [3] -0.061 | [15] -0.052 | [4] 0.123 | pinometostat 0.042 | [13] 0.176

Going on with the list.

WDR19 (UniProt Q8NEZ3)
inactive: [5] -0.16 | [6] 0.125 | [9] 0.041 | [2] 0.048 | [7] -0.15 | [10] -0.099 | [11] 0.2 | ibrutinib -0.272 | [8] 0.026 | ralimetinib -0.038 | [4] -0.057 | [12] -0.021

WBP1L isoform 2 (UniProt Q9NX94)
inactive: [9] 0.254 | ibrutinib -0.11

VPS35, A0A1W2PP10
inactive: [1] 0.099 | [9] -0.001 | [10] -0.209 | [11] -0.11 | IRAK-1-4 Inhibitor I 0.022 | ibrutinib 0.085 | [3] -0.065 | pinometostat 0.128 | [13] 0.076 | [12] -0.05

VLDLR (UniProt P98155)
inactive: [1] 0.037 | [10] -0.085 | [11] 0 | [3] 0.026 | [13] 0.136 | [12] 0.066

VCPKMT (UniProt Q9H867)
inactive: [5] 0.151 | [6] 0.202 | [7] 0.199 | [10] -0.066 | [11] 0.154 | [8] -0.209 | [12] 0.071
